Experimental data: the supplement of paper PMC10849652
The list shows a part of the results.

Protein sequences, listed by entry. Tags and fused reporters are not part of them. Lines headed by an entry give the natural chain unless they say otherwise; changes in a name come on top.
UniProt O00329: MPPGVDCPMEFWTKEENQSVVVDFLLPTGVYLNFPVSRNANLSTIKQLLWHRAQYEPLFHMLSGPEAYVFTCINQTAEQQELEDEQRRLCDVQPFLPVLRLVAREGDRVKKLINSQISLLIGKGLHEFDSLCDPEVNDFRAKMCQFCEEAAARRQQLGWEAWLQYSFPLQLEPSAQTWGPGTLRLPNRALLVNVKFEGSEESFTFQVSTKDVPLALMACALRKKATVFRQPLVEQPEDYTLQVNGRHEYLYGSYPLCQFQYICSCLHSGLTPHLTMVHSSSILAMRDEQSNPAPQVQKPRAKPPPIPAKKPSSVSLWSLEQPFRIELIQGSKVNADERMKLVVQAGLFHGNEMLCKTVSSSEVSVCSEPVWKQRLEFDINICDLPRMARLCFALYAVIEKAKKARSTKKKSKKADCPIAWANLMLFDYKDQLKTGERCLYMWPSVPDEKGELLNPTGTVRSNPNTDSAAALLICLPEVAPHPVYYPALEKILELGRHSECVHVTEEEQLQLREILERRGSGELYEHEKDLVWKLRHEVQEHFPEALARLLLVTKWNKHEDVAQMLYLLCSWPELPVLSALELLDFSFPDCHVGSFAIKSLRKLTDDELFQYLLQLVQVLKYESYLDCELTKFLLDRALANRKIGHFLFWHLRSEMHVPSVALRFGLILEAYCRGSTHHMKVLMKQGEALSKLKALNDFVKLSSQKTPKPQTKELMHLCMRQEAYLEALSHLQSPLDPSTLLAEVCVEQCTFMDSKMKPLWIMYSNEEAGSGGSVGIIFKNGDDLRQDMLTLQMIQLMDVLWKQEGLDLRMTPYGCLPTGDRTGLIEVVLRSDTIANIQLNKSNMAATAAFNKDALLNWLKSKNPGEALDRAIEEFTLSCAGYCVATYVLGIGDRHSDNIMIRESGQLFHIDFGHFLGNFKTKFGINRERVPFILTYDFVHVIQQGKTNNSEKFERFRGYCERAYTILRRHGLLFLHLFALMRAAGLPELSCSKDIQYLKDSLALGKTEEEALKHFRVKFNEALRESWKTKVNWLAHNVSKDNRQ
UniProt Q15111: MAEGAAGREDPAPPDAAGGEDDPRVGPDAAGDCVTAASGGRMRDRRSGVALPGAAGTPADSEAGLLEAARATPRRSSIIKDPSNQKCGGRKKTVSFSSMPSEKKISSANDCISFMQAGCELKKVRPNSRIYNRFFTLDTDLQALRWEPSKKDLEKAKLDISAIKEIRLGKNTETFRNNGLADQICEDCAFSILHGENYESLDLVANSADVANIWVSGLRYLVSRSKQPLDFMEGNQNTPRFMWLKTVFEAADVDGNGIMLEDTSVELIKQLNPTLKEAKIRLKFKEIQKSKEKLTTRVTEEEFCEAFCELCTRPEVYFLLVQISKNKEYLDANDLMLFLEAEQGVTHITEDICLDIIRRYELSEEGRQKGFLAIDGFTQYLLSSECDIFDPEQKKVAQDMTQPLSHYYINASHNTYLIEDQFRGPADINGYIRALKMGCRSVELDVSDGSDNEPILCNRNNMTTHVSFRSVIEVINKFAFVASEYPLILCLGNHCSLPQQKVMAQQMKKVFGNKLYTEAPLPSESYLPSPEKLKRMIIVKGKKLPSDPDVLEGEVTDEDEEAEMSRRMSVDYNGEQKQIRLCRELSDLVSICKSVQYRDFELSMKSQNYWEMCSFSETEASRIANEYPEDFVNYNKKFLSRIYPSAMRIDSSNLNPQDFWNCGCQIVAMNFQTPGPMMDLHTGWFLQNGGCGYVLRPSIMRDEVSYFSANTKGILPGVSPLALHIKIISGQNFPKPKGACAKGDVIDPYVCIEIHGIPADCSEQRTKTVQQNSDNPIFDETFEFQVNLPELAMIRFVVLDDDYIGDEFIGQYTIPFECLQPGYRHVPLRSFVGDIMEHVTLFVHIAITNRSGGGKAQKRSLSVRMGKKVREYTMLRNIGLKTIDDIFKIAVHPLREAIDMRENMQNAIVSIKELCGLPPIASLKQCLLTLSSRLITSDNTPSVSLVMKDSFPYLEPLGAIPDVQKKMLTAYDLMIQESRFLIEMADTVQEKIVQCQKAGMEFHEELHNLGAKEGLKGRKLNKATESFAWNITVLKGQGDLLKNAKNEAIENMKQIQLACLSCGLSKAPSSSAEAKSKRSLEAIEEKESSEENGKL
UniProt P12273: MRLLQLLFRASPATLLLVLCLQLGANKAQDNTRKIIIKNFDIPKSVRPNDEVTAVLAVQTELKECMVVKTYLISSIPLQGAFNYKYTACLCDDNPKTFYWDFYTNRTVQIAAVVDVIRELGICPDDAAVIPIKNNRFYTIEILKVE
UniProt Q8N4L2: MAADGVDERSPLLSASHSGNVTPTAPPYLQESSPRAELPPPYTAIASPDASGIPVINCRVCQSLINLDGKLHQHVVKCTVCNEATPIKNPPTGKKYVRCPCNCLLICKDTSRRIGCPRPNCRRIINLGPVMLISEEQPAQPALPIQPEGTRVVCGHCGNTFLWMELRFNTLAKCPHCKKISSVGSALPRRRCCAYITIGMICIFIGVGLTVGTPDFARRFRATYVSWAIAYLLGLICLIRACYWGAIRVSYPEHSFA
UniProt O00625: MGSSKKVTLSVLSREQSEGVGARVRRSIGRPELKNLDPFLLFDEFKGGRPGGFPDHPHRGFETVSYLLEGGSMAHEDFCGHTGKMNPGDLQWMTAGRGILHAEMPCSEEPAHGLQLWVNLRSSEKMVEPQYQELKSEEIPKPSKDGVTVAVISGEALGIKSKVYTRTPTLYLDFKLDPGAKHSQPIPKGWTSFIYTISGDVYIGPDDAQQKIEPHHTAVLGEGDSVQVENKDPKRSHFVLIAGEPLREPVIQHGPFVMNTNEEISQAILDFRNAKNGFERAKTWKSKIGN
UniProt Q13393: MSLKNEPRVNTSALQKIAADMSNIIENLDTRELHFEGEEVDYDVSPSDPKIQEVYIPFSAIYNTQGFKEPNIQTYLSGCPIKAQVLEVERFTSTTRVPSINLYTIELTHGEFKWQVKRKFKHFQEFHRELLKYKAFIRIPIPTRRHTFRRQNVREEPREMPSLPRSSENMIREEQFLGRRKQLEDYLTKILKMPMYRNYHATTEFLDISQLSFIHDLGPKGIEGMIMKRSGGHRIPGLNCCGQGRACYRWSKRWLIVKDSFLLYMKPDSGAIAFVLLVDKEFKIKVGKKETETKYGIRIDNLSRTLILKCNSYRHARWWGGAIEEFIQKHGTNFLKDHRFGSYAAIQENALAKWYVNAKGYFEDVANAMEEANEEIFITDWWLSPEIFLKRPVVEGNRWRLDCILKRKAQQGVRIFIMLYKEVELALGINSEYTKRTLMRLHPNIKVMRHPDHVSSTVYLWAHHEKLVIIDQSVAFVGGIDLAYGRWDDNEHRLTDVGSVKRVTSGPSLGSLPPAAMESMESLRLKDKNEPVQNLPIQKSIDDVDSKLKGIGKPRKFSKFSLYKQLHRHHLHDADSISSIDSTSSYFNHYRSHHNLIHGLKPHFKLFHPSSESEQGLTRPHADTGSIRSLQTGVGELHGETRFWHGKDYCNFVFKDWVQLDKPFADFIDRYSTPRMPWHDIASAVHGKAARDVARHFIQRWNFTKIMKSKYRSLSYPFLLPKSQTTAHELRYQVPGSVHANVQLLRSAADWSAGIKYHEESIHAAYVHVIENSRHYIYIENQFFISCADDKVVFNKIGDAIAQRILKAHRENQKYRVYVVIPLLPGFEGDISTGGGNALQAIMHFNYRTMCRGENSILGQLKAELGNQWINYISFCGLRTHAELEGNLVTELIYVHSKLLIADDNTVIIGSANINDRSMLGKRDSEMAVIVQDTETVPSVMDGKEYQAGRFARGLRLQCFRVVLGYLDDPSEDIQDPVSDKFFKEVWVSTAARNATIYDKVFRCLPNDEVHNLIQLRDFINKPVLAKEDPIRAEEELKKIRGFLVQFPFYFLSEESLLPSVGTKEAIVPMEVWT
UniProt Q92508: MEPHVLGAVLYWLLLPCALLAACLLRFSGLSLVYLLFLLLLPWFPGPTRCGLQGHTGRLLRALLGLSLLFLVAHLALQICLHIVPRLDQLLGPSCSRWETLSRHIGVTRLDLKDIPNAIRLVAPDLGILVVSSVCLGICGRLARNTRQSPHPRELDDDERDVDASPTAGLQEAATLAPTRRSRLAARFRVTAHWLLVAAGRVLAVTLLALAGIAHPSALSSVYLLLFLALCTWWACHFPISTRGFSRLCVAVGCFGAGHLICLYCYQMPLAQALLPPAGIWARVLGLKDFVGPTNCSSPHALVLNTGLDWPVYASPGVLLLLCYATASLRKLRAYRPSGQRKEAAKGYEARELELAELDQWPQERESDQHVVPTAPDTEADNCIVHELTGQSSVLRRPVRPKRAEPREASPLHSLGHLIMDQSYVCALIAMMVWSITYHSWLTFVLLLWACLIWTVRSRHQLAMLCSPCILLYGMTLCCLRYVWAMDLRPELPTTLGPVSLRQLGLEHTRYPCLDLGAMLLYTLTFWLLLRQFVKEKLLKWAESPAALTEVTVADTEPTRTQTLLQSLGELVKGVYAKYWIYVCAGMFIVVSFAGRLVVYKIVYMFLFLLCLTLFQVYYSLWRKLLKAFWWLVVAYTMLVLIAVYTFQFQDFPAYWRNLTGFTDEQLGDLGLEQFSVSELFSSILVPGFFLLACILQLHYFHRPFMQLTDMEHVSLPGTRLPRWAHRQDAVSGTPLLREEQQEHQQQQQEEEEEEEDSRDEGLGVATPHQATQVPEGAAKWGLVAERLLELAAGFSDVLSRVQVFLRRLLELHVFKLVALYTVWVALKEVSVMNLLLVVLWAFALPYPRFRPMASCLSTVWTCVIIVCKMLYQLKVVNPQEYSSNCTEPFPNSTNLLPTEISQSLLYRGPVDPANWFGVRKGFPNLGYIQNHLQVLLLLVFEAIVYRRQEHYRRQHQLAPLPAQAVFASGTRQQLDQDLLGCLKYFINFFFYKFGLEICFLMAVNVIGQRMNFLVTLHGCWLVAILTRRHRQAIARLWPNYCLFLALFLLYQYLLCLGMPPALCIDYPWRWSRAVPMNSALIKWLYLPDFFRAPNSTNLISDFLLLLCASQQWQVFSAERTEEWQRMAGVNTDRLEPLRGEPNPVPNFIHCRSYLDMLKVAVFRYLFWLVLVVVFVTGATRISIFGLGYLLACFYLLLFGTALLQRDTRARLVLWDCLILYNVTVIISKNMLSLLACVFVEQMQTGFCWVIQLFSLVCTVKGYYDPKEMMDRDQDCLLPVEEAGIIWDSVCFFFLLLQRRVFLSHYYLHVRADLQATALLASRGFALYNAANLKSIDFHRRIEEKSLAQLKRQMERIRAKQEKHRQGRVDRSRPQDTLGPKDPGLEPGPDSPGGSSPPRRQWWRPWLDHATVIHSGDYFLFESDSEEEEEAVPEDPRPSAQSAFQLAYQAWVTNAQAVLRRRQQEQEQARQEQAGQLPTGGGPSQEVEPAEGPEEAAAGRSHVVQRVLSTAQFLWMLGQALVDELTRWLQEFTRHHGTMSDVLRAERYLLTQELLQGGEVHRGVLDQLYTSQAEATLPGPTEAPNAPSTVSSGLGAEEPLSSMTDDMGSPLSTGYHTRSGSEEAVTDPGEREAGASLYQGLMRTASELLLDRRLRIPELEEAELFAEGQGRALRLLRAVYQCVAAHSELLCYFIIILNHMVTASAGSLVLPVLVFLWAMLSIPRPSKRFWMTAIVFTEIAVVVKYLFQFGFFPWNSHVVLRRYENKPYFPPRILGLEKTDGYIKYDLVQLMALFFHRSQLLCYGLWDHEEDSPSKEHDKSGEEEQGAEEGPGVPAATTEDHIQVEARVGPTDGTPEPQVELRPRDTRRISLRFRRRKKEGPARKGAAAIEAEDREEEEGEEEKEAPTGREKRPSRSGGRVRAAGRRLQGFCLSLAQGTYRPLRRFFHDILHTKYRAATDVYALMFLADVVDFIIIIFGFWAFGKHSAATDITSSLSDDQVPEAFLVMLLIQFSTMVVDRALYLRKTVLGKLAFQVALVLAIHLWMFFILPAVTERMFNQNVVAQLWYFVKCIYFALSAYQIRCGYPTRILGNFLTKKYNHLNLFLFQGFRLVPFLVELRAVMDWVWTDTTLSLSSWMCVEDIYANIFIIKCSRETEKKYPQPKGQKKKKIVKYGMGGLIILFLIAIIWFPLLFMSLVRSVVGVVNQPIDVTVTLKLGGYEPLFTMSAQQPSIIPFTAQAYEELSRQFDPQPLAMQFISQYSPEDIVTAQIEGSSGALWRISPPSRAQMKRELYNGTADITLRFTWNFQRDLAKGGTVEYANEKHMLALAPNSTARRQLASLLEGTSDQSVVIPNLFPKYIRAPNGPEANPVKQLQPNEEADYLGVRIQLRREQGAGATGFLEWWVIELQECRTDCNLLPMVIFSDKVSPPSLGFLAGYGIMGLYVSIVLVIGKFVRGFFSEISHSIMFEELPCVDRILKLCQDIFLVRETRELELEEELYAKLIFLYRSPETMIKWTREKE

How the values were obtained:
Assay in all cases: log2 fold change, soluble protein after heating vs DMSO (PISA); higher = thermal stabilisation; K562 lysate, 10 uM; active = over 0.2 and 3.5 SD of the protein, either way, in both replicates (recomputed)
[1] = compound: CCCS(=O)(=O)Nc1ccc(F)c(C(=O)c2c[nH]c3ncc(-c4ccc(Cl)cc4)cc23)c1F [vemurafenib]
Outline: (§1)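 The values are log-two fold changes in thermal stability compared with solvent controls and come from duplicates. They were obtained by TMTpro 16plex LC-MS/MS, with channel sums equalised, on the supernatant after 21,000xg for 90 min. That supernatant came from crude K562 extract at 1 mg/mL protein treated with 10 μM compound for 30 min, heated for 3 min across 48°C-58°C, pooled and brought to 0.5% NP-40 at 4°C.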

[2] = compound: CCCS(=O)(=O)Nc1ccc(F)c(C(=O)c2c[nH]c3ncc(Cl)cc23)c1F
Outline: as §1

[3] = compound: CCN(CCCOc1ccc2c(Nc3cc(CC(=O)Nc4cccc(F)c4)[nH]n3)ncnc2c1)CCOP(=O)(O)O [barasertib]
Outline: as §1

[4] = compound: CC[C@@H]1C(=O)N(C)c2cnc(Nc3ccc(C(=O)N[C@H]4CC[C@H](N5CCN(CC6CC6)CC5)CC4)cc3OC)nc2N1C(C)C [volasertib]
Outline: as §1

[5] = compound: CCn1c(C(=O)N(C2CC2)C2CC2)cc2c3c(ncn3C)c(Nc3cc(C)n(C)n3)nc21
Outline: as §1

[6] = compound: CCn1cc(-c2ccnc3[nH]c(-c4cccc(CN(C)C)c4)cc23)c(-c2ccc(NC(=O)N(C)C)cc2)n1
Outline: as §1

[7] = compound: CN1CCC(CNc2ccc3ncc(-c4cccc(OC(F)(F)F)c4)n3n2)CC1
Outline: as §1

[8] = compound: CN1CCN(CCOc2cc(OC3CCOCC3)c3c(Nc4c(Cl)ccc5c4OCO5)ncnc3c2)CC1 [saracatinib]
Outline: as §1

[9] = compound: CN1CCN(c2nc(C3=C(c4c[nH]c5ccccc45)C(=O)NC3=O)c3ccccc3n2)CC1 [sotrastaurin]
Outline: as §1

[10] = compound: CN1CC[C@H](c2c(O)cc(O)c3c(=O)cc(-c4ccccc4Cl)oc23)[C@H](O)C1 [alvocidib]
Outline: as §1

[11] = compound: CN1CCc2c(c3ccccc3n2Cc2ccc(C(=O)NO)cc2)C1 [Tubastatin A]
Outline: as §1

[12] = compound: CNC(=O)C1=CC=CC=C1NC2=NC(=NC=C2Cl)NC3=C(C=C(C=C3)N4CCOCC4)OC
Outline: as §1

[13] = compound: CNC(=O)c1ccc(Nc2ncc(C(F)(F)F)c(NCc3nccnc3N(C)S(C)(=O)=O)n2)cc1 [defactinib]
Outline: as §1

[14] = compound: CNc1nc(-c2ccc3c(N)n[nH]c3c2)cc(N2C[C@@H](C(=O)NC3CCCCC3)CC[C@H]2C)n1
Outline: as §1

[15] = compound: COc1cc(Nc2ncc3c(n2)-c2ccc(Cl)cc2C(c2c(F)cccc2OC)=NC3)ccc1C(=O)O [alisertib]
Outline: as §1

[16] = compound: COc1cc2nc(-c3cc(F)ccc3O)nc(N[C@@H]3CNC[C@H]3C(C)(C)O)c2cc1OC
Outline: as §1

[17] = compound: CC[C@@H]1C(=O)N(C)c2cnc(Nc3ccc(C(=O)NC4CCN(C)CC4)cc3OC)nc2N1C1CCCC1
Outline: as §1

[18] = compound: COC(=O)N[C@@H](C)CNc1nccc(-c2cn(C(C)C)nc2-c2cc(Cl)cc(NS(C)(=O)=O)c2F)n1 [encorafenib]
Outline: as §1

[19] = compound: COC(=O)[C@H](CCSC)NC(=O)C1=C(C=C(C=C1)NC[C@H](CS)N)C2=CC=CC=C2
Outline: as §1

[20] = compound: COc1cc2ncnc(Nc3ccc(F)c(Cl)c3)c2cc1OCCCN1CCOCC1 [gefitinib]
Outline: as §1

Measured: log2 fold change

PIK3CD (UniProt O00329)
inactive: [1] -0.094 | [2] 0.005 | [3] -0.046 | [4] -0.015 | [5] 0.072 | [6] -0.109 | [7] 0.398 | [8] -0.04 | [9] 0.023 | [10] -0.105 | [11] 0.012 | [12] 0.021 | [13] 0.052 | [14] -0.047 | [15] -0.027 | [16] 0.027

PIGQ (UniProt Q9BRB3)
inactive: [1] 0.086 | [2] 0.147 | [3] -0.22 | [17] 0.022 | [4] 0.098 | [6] -0.142 | [7] 0 | [9] 0.188 | [10] -0.009 | [13] 0.052 | [18] 0.212 | [19] -0.199 | [16] -0.027

PHYKPL (UniProt Q8IUZ5)
inactive: [1] 0.019 | [2] 0.03 | [3] 0.033 | [17] -0.155 | [4] 0.018 | [5] 0.138 | [6] -0.015 | [7] 0.033 | [8] -0.009 | [9] -0.053 | [10] 0.051 | [11] 0.074 | [12] -0.006 | [13] 0.032 | [14] -0.009 | [18] 0.115 | [19] -0.023 | [16] 0.026

PIK3R4 (UniProt Q99570)
inactive: [1] 0.008 | [2] 0.019 | [3] 0.006 | [17] 0.031 | [4] -0.066 | [5] -0.018 | [6] -0.052 | [7] 0.026 | [8] 0.015 | [9] 0.019 | [10] -0.038 | [11] -0.052 | [12] 0.005 | [13] 0.002 | [14] -0.004 | [18] 0.051 | [19] -0.012 | [15] -0.013 | [16] 0.02 | [20] 0.011

PI4K2B (UniProt Q8TCG2)
inactive: [1] -0.003 | [2] -0.006 | [3] 0.023 | [17] 0.07 | [4] -0.032 | [5] -0.062 | [6] 0.081 | [7] 0.121 | [8] -0.009 | [9] 0.132 | [10] -0.263 | [11] 0.12 | [12] -0.04 | [13] -0.081 | [14] -0.057 | [18] 0.041 | [19] -0.005 | [15] -0.068 | [16] -0.011 | [20] 0.107

PLCL1 (UniProt Q15111)
inactive: [1] -0.015 | [2] 0.031 | [3] 0.09 | [17] -0.038 | [4] -0.07 | [5] -0.079 | [6] -0.015 | [7] -0.056 | [8] 0.038 | [9] -0.005 | [10] -0.039 | [11] -0.025 | [12] 0.044 | [13] 0.052 | [14] 0.151 | [18] 0.033 | [19] 0.017 | [15] 0.018 | [16] -0.006 | [20] -0.01

PIP (UniProt P12273)
inactive: [1] 0.094 | [2] -0.453 | [3] -0.066 | [17] -0.129 | [4] -0.567 | [5] -0.063 | [6] 0.246 | [7] -0.591 | [8] 0.006 | [9] -0.225 | [10] 0.041 | [11] 1.07 | [12] -0.273 | [13] 0.145 | [14] -0.628 | [18] -0.384 | [19] 0.626 | [15] -0.122 | [16] -0.004 | [20] 0.056

PLCH1 (UniProt Q4KWH8)
inactive: [1] -0.04 | [2] -0.028 | [3] 0 | [17] -0.139 | [4] 0.045 | [5] 0.002 | [6] 0.163 | [7] 0.036 | [8] -0.015 | [9] 0.02 | [10] -0.081 | [11] 0.045 | [12] -0.05 | [13] 0.023 | [14] -0.169 | [18] 0.017 | [19] -0.072 | [16] -0.006

PLEKHA5 isoform 6 (UniProt Q9HAU0)
inactive: [1] 0.003 | [2] -0.003 | [3] 0.043 | [17] -0.005 | [4] 0.003 | [5] 0.026 | [6] -0.117 | [7] -0.088 | [8] 0.027 | [9] 0.02 | [10] -0.11 | [11] -0.074 | [12] 0.02 | [13] 0.065 | [14] 0.006 | [18] -0.016 | [19] 0.054 | [15] 0.035 | [16] -0.03 | [20] -0.039

PI4K2A (UniProt Q9BTU6)
inactive: [1] -0.025 | [2] 0.037 | [3] 0.041 | [17] -0.009 | [4] -0.027 | [5] 0.004 | [6] 0.019 | [7] 0.042 | [8] -0.037 | [9] 0.102 | [10] -0.006 | [11] -0.037 | [12] 0.021 | [13] -0.023 | [14] 0.012 | [18] 0.022 | [19] -0.092 | [15] -0.008 | [16] -0.056 | [20] 0.021

PIP4P2 (UniProt Q8N4L2)
inactive: [1] 0.038 | [2] 0.031 | [3] 0.311 | [17] 0.039 | [4] 0.01 | [5] -0.016 | [6] 0.022 | [7] 0.03 | [8] 0.038 | [9] -0.16 | [10] -0.03 | [11] 0.038 | [12] -0.021 | [13] -0.009 | [14] 0.062 | [18] 0 | [19] -0.12 | [15] 0.006 | [16] 0.052 | [20] 0.111

PIR (UniProt O00625)
inactive: [1] -0.023 | [2] 0.098 | [3] -0.005 | [17] 0.025 | [4] 0.019 | [5] -0.055 | [6] 0.205 | [7] -0.024 | [8] -0.006 | [9] -0.028 | [10] 0.006 | [11] 0.019 | [12] -0.011 | [13] -0.032 | [14] 0.012 | [18] 0.003 | [19] -0.07 | [15] 0.016 | [16] -0.008 | [20] -0.012

PLD1 (UniProt Q13393)
inactive: [1] 0.022 | [2] -0.001 | [3] 0.009 | [17] -0.067 | [4] -0.024 | [5] -0.015 | [6] -0.216 | [7] 0.063 | [8] 0.05 | [9] 0.032 | [10] -0.018 | [11] 0.076 | [12] 0.001 | [13] 0.055 | [14] -0.025 | [18] 0.068 | [19] -0.028 | [15] -0.009 | [16] 0.017 | [20] 0.011

PKM (UniProt H3BTN5)
inactive: [1] 0.036 | [2] -0.082 | [3] -0.099 | [17] -0.077 | [4] 0.104 | [9] 0.032 | [12] 0.316 | [13] -0.009 | [18] -0.005 | [19] -0.094 | [16] -0.055

PICALM (UniProt H0YEH1)
inactive: [1] 0.05 | [2] -0.094 | [3] -0.018 | [17] -0.008 | [4] -0.011 | [5] -0.014 | [7] 0.248 | [8] 0.056 | [9] 0.126 | [10] -0.206 | [11] 0.126 | [12] 0.098 | [13] 0.006 | [14] 0 | [18] -0.038 | [19] 0.098 | [15] 0.049 | [16] -0.042 | [20] -0.036
active: [6] -0.54

PIEZO1 (UniProt Q92508)
inactive: [1] -0.001 | [2] 0.008 | [3] -0.014 | [17] -0.001 | [4] 0.022 | [5] 0.011 | [6] -0.053 | [7] 0.036 | [8] -0.022 | [9] 0.024 | [10] -0.006 | [11] 0.041 | [12] 0.018 | [13] -0.028 | [14] 0.004 | [18] 0.019 | [19] -0.044 | [15] -0.024 | [16] 0.016 | [20] 0.041

4 neighbouring records already listed, for reference:
PIP4P2 (UniProt Q8N4L2)
inactive: [1] 0.038 | [2] 0.031 | [3] 0.311 | [17] 0.039 | [4] 0.01 | [5] -0.016 | [6] 0.022 | [7] 0.03 | [8] 0.038 | [9] -0.16 | [10] -0.03 | [11] 0.038 | [12] -0.021 | [13] -0.009 | [14] 0.062 | [18] 0 | [19] -0.12 | [15] 0.006 | [16] 0.052 | [20] 0.111

PIR (UniProt O00625)
inactive: [1] -0.023 | [2] 0.098 | [3] -0.005 | [17] 0.025 | [4] 0.019 | [5] -0.055 | [6] 0.205 | [7] -0.024 | [8] -0.006 | [9] -0.028 | [10] 0.006 | [11] 0.019 | [12] -0.011 | [13] -0.032 | [14] 0.012 | [18] 0.003 | [19] -0.07 | [15] 0.016 | [16] -0.008 | [20] -0.012

PLD1 (UniProt Q13393)
inactive: [1] 0.022 | [2] -0.001 | [3] 0.009 | [17] -0.067 | [4] -0.024 | [5] -0.015 | [6] -0.216 | [7] 0.063 | [8] 0.05 | [9] 0.032 | [10] -0.018 | [11] 0.076 | [12] 0.001 | [13] 0.055 | [14] -0.025 | [18] 0.068 | [19] -0.028 | [15] -0.009 | [16] 0.017 | [20] 0.011

PKM (UniProt H3BTN5)
inactive: [1] 0.036 | [2] -0.082 | [3] -0.099 | [17] -0.077 | [4] 0.104 | [9] 0.032 | [12] 0.316 | [13] -0.009 | [18] -0.005 | [19] -0.094 | [16] -0.055

Remaining list, next part:

PLCG2 (UniProt P16885)
inactive: [1] -0.017 | [2] 0.029 | [3] 0.018 | [17] 0.091 | [4] -0.016 | [5] -0.158 | [6] -0.039 | [7] -0.385 | [9] -0.042 | [10] 0.1 | [11] -0.102 | [12] -0.151 | [13] 0.131 | [18] 0.051 | [19] 0.038 | [15] -0.015 | [16] -0.07 | [20] 0.021
